The campaign covered roughly 31,000 sequences. About 1,400 (4.5%) were called active.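 Rule for the calls: active = median seed-adjusted z-score above 1 or below -1; inactive = the rest.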 The list shows a part of the results.

The nature of the test: Novel Modifiers of Survival Motor Neuron (SMN) Protein: Gene Identification via Genome-wide siRNA Screen.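 Note: luminescence tracks full-length SMN protein made from the SMN2 reporter.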 The following applies: HEK293T SMN2-luciferase reporter, siRNA knockdown, 72 h; actives lie on both sides. In short, it runs like this:
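Steps: spot 1 pmol siRNA, add Lipofectamine RNAiMax in serum-free DMEM, seed HEK293T SMN2–luciferase reporter cells; incubate 72 h at 37 °C; add ONE-Glo; normalize luminescence to control siRNA, log10, MAD. Candidates: |MAD| > 1.0.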
In the case of CGCAAGGACAGAAAACCAATT against ASMT, the median seed-adjusted z-score was inactive: -0.322. GCACUGAUAAGAAUCUAUUTT against ABHD6: the median seed-adjusted z-score is inactive: 0. The figure for GGAGGUCGAUUUAGUAACATT against AUH is inactive: 0. In the case of GGAUCCUGAUGCUUCAAAATT against CALR, the median seed-adjusted z-score was inactive: -0.795. The figure for CUAUCCUUGAAAUCCCGAATT against CNTN6 is inactive: 0; for GGAAGUAUCUUCAGGCAGATT against MS4A2 it is inactive: 0.155; for ACAAGUUCUUGGAGCCUUATT against ATP1B2 it is inactive: -0.185. On to GGUUAUCUGGUUAUGGUGATT against SLC28A3, for which the median seed-adjusted z-score was inactive: -0.107. The figure for GGUCCGGAAUGUGAACUUUTT against SERPINE2 is inactive: 0.0144; for CAAACACUUCUAUUACUUUTT against MOBKL2B it is inactive: -0.613. As for GCAAAAUGAUCAAGCCUUUTT against TXN, the median seed-adjusted z-score is inactive: -0.195. With CCCUUAACCUCAUGAGCAATT against ZBTB39, the median seed-adjusted z-score was inactive: -0.209. As for CAGAGGUACUCCACGCAGATT against BHLHA15, the median seed-adjusted z-score is inactive: -0.199.

For the sequence CCUUUUACGUCACCCUUUATT against LIPG, the median seed-adjusted z-score was inactive: -0.00236.

As to GUUCAAUGGUGGAAGCUUATT against CLEC4F, the median seed-adjusted z-score was inactive: 0.347. Consider GGAUCGAUCUUCUUGUGGATT against SHKBP1, for which the median seed-adjusted z-score was inactive: 0.345. For GCCUUGACUCAUUUGGAAATT against PADI2 the value was inactive: -0.199; for GGUCUACCGGAUUAUCACATT against BRD2, inactive: -0.242; for GCUGUGCCCAAUACAAGAATT against ALDOC, inactive: 0.119. For GGACCUGUUAAGACCUAUATT against AMPD1 the value was inactive: 0.378; for GGUGGAGCAAGUUGGCAAATT against NOXA1, inactive: -0.441; for GCUCAGCUCUUCGAAUUCATT against ZNF214, inactive: 0.467. For the sequence CUCAGAUACUAUUAUGUAATT against ELK4, the median seed-adjusted z-score was inactive: 0.235. For GGCUUUACUUUACAUCGAATT against FBXO45 the value was inactive: -0.043. As to ACUCAACAACUGUUCAAUATT against DYNLRB2, the median seed-adjusted z-score is inactive: 0.534. Regarding CCUUACCCUCAAAACAUUATT against B3GALT1, the median seed-adjusted z-score was inactive: -0.0555. For CCAAGAAAAUCACUCUUAATT against IMPDH2 the value was inactive: 0.119; for UCCUCAAAGUGACACCGGATT against CREB3L1, inactive: 0.708; for GAUAGAACUUGAGACAGUATT against UBE2G1, inactive: 0.174. For CUUUGGAGAUGCUAUUAAATT against HBE1, the median seed-adjusted z-score is inactive: -0.425. For GAUAUAUGGUGUUUCAAAATT against UGT2B15, the median seed-adjusted z-score is inactive: 0.421.

As for GCAUGAAACUGAGUGAAGATT against RASSF5, the median seed-adjusted z-score was inactive: 0.11.

GCACGAGGUUUUCACCUAUTT against SRMS: the median seed-adjusted z-score is active: -1.58. Consider CAAGCGAAUUAACUAUCUATT against GJB3, for which the median seed-adjusted z-score is inactive: -0.198. On to GAGUCUUACUGUUAACAGUTT against CRTC1, for which the median seed-adjusted z-score is inactive: 0.00363. As for CACCUAUCGCUUACACGUATT against SUOX, the median seed-adjusted z-score was inactive: -0.0649. GCUUGCAGUUAAUAUCAUUTT against ODC1: the median seed-adjusted z-score was active: -1.64. Take GCACGGCACUCAAGAUCAATT against CACNA1S: the median seed-adjusted z-score is inactive: 0.842. For GAGCAGCAGUGCGAAGUGATT against THBD the value was inactive: -0.16. Take CCGUGUUCAUUCCUUUUCATT against ZFP41: the median seed-adjusted z-score was inactive: 0. Take GCACUGUGGUGAGCUCCAATT against SRP14: the median seed-adjusted z-score is inactive: 0.0824.

As to GCUUGCUCCUAGACAAUUATT against SPAM1, the median seed-adjusted z-score is inactive: 0.518. On to ACAAGACUCUGGACAUUAATT against DHRS4, for which the median seed-adjusted z-score was inactive: 0.263. Turning to AAGUGUUUGUUGUCCGGGATT against PCDH11Y, the median seed-adjusted z-score is inactive: 0.186.

Turning to ACAUGACCUUCAUUCAUGATT against RAPGEF3, the median seed-adjusted z-score was inactive: -0.481. As for CCCGUCAUCUCGUUACAAATT against ARHGEF18, the median seed-adjusted z-score is inactive: 0.586. In the case of CCACCUAUAAAGUUCUAAATT against CAPRIN1, the median seed-adjusted z-score was active: 1.36. For GGAAUUUCAUGUUCGGAAUTT against PAFAH2 the value was inactive: 0.0216.

ACGCGGUUCUGGAGAGUCATT against DHH: the median seed-adjusted z-score is inactive: 0. As for CAGUUGAUAUUCAUAAAGATT against ABI2, the median seed-adjusted z-score was inactive: -0.0392. As to CCCAAUCUCUCAGACCCACTT against GP1BB, the median seed-adjusted z-score is inactive: -0.711. Take CUAGACUUGUCACAAAUGATT against PARS2: the median seed-adjusted z-score is inactive: -0.433. For CCAUAUCCCACAGCAAUUUTT against CACNB4 the value was inactive: -0.223; for GAUGUAACAUUGACAUUGATT against NOTCH2, inactive: 0.000598. CCAUGAUCUCGAAUAUGAATT against CNGA3: the median seed-adjusted z-score was inactive: -0.125.

Regarding GGAUACAUCACUAGAUAAATT against MAP2K6, the median seed-adjusted z-score is inactive: -0.889. As for GGAUCGAGGAAAUAACAAUTT against DDX42, the median seed-adjusted z-score is active: -2.13. For GCAUGUCUCCAGUACAGAATT against DIO2, the median seed-adjusted z-score is inactive: -0.549. For GCGUUUAUCCGGUUUGACATT against ELAVL1 the value was inactive: 0.316; for GCAUUCUUGCAGAUCGUAUTT against SEC23A, inactive: 0.131; for GGAAAGAGAUUCAACAACATT against ZNF434, inactive: 0.545. For the sequence AGAAAUACAUGAAGCCCAATT against RNF113A, the median seed-adjusted z-score was inactive: -0.128. The figure for GCAGCGCAGUGUUACUCCATT against ARPC5L is inactive: -0.36; for CGGAAAAACCUACUGCGAATT against FARSA it is inactive: -0.158. GAACUGGGACUAACACCUATT against C2: the median seed-adjusted z-score was inactive: -0.0549. For GUGUGGAUCUGUGGACUCATT against CRB2 the value was inactive: 0; for GAACUUGACCAUUAUAUCATT against PHKA2, inactive: 0.304.

For GGACACGUGUCAUCCGAAATT against IQGAP2, the median seed-adjusted z-score was inactive: 0.194. GAAAGUUCAAGUACAGUGATT against CYP2E1: the median seed-adjusted z-score is inactive: 0.81. As for GGUUAACUUCUUGAGCUAUTT against APOA2, the median seed-adjusted z-score is inactive: -0.297. As for GAACCUGACAUUUCGAGAATT against PLCXD2, the median seed-adjusted z-score was inactive: -0.0211.

For the sequence CUUACGAAGCUUAACCCAATT against TNS3, the median seed-adjusted z-score is inactive: 0.18.

Take GCCUCAUCAUCACCGCGAATT against GPBAR1: the median seed-adjusted z-score was inactive: -0.00293. Turning to GCCUUCAAGAUGAACCGCATT against SETBP1, the median seed-adjusted z-score is inactive: 0.0232.

As to GAAUGGUAGAACAAGGUGATT against ADAM10, the median seed-adjusted z-score was inactive: 0.14.

Regarding GGAGUUUCCCAUCAAACGATT against PADI4, the median seed-adjusted z-score is inactive: 0.417. In the case of CGAGUUCUCAGACUCCUAUTT against CTPS, the median seed-adjusted z-score is inactive: 0.0943. The figure for GUGUCUAAAUGUACCAGUUTT against TIGD4 is inactive: -0.553; for CGGUCAUACGUAAGAACGATT against P2RY12 it is inactive: 0.143. For the sequence GGUGAAUUCAAGCUCCUCATT against ELK3, the median seed-adjusted z-score was inactive: -0.16. On to AGAGGGCACUGGACCUGAATT against UQCRB, for which the median seed-adjusted z-score was inactive: 0.348. As for GCACAAGUUUGAGCUAGAATT against APOL5, the median seed-adjusted z-score was inactive: -0.209. AGAUCGUGGUACAGAAGAATT against RBCK1: the median seed-adjusted z-score was inactive: 0.479. Regarding CGAGCAAGGUCCUUCCAUATT against IGFBP7, the median seed-adjusted z-score is inactive: 0.116. As to GGCUUGCUCGUAUUGAUUUTT against SLC40A1, the median seed-adjusted z-score was inactive: -0.177. In the case of AGUCCUACGUACAAUGUCATT against MED25, the median seed-adjusted z-score was inactive: -0.589.

Turning to GGUUUGAAGGGUUGACUCATT against STK38L, the median seed-adjusted z-score was inactive: 0.079. Turning to GCUACGAUGGAUCACCCUATT against HSD3B7, the median seed-adjusted z-score was inactive: -0.0819.

On to CCUAGACUCUCGCACUGAATT against TIMM8B, for which the median seed-adjusted z-score was inactive: -0.853.

In the case of CCCAGUUAGUAUUAUCAUATT against HS3ST3A1, the median seed-adjusted z-score is inactive: -0.133.

GCGGCUCCAUUUACCAGAATT against VDAC1: the median seed-adjusted z-score is inactive: 0.133. Regarding GCAAAGUGCUAAUUGAUAUTT against SUB1, the median seed-adjusted z-score is inactive: -0.571. Regarding CAGCAGUACCGACAGAAGATT against ATAD3B, the median seed-adjusted z-score is inactive: -0.624. Regarding GCACUUUCGCUACAUUUCATT against AQP11, the median seed-adjusted z-score was inactive: -0.0455. As to GUGUGGAUCCUAACCGGAATT against CPA2, the median seed-adjusted z-score was inactive: 0.0374. In the case of GGCUACUUCAUGAUACAGATT against GABRA6, the median seed-adjusted z-score is inactive: 0.466. On to GCAUCAUCAUCCGAAAUGATT against HECTD2, for which the median seed-adjusted z-score is inactive: 0.405. In the case of GGGAUGAGCUGAAUGUCAATT against KLHL18, the median seed-adjusted z-score is inactive: -0.126. For GGACAGCAGUGACAUCGGATT against TWIST2, the median seed-adjusted z-score was inactive: 0.363. As for GCACUGCUGUUUCCUCUCATT against SBF1, the median seed-adjusted z-score was inactive: 0.192. The figure for GCAAGUUACUUAUCAAGCUTT against AIFM1 is inactive: 0.0499; for GGUACAUCGCGAUAUCAAATT against YSK4 it is inactive: -0.181; for CGGUGUGAAGAUGAUCUAATT against DNAJC24 it is inactive: -0.0166. On to CACCUAUAGUGACGAUAUATT against MEP1B, for which the median seed-adjusted z-score is active: 1.46. For CCUUAUGAACUGUUGUUAATT against ANKS1A, the median seed-adjusted z-score is inactive: -0.0165.

GAAGGAAGAUAGUUCGAGATT against DNAJA1: the median seed-adjusted z-score was inactive: -0.00548. On to CAACACCUACUGUCUGGUATT against EIF6, for which the median seed-adjusted z-score was inactive: 0.

For the origin of these results see PubChem BioAssay AID1347426 (Functional Genomics Laboratory (NCATS/FGL), 2020).
